Assay results: PubChem BioAssay AID1487 (National Center for Advancing Translational Sciences (NCATS), 2009)
“And” between values parts separate entries of the source, which are not always exact repeats. Identical values can stand only once. This is one part of the list. These are further read-outs of the screen, such as a control signal, another cell line or another target. No call is given for them. The list favours compounds with an active or inconclusive main result. The note in brackets gives the kind of curve behind each potency; many fits are weak.

Assay: qHTS Assay for Modulators of Lamin A Splicing
Conditions: HeLa LMNA splicing GFP/RFP minigene ratio, 48 h
In short: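 S3 HeLa stable clones carrying a lamin A-EGFP splicing minigene plus DsRed2 were seeded at 600 cells/well in Opti-MEM with 2% FBS, pin-dosed and incubated 48 h at 37°C. Acumen cytometry (488 nm) gave the GFP/RFP total-intensity ratio.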

[1] = measured here: GFP splicing reporter channel
[2] = measured here: RFP viability control channel

Question: For CCC(=O)Nc1cccc(NC(=S)NC(=O)c2cccs2)c1, which AC50 [1] is on record?
Answer: Its AC50 is 17.8 µM [rising, partial curve].

Question: And the AC50 [2]?
Answer: Its AC50 is 20 µM [rising, partial curve, poor fit].

Question: For CCOC(=O)c1ccccc1NC(=O)CSc1nc2ncccc2[nH]1, which AC50 [2] is on record?
Answer: The AC50 was 8.91 µM [falling, partial curve].

Question: Which AC50 [2] does the source give for CC(C)Cn1c(N)c(C(=O)COC(=O)c2ccc(F)cc2)c(=O)n(C)c1=O here?
Answer: Its AC50 is 5.01 µM [rising, full curve, poor fit].

Question: Which AC50 [2] does the source give for Cc1cc(C(=O)Cn2nc(C(=O)O)c3ccccc3c2=O)c(C)n1-c1ccc(F)cc1 here?
Answer: The AC50 was 2.82 µM [rising, partial curve, poor fit].

Question: Which AC50 [2] does the source give for CN1CCN(CC(=O)N2c3ccccc3C(C)(c3ccccc3)CC2(C)C)CC1 (centres undefined) here?
Answer: The AC50 was 20 µM [rising, partial curve].

Question: For CCOC(=O)c1sc(NC(=O)CCN2CCN(CC)CC2)c(C(=O)OCC)c1C, which AC50 [1] is on record?
Answer: Its AC50 is 17.8 µM [falling, single point].

Question: For O=C(CN1CCC(c2nc3ccccc3s2)CC1)NCc1cccs1, which AC50 [1] is on record?
Answer: Its AC50 is 11.2 µM [rising, single point].

Question: And the AC50 [2]?
Answer: The AC50 was 8.91 µM [rising, partial curve].

Question: Which AC50 [2] does the source give for CCCCC(CC)COC(=O)C(C#N)=C(c1ccccc1)c1ccccc1 (centres undefined) here?
Answer: Its AC50 is 5.01 µM [rising, partial curve, poor fit].

Question: For Cc1ccc(/C=c2\sc3nc(-c4cccnc4)nn3c2=O)cc1, which AC50 [1] is on record?
Answer: Its AC50 is 35.5 µM [falling, single point].

Question: And the AC50 [2]?
Answer: The AC50 was 20 µM [falling, single point].

Question: Which AC50 [1] does the source give for Nc1c2c(nc3ccccc13)CCCC2 here?
Answer: The AC50 was 63.1 nM [falling, full curve, poor fit] and 31.6 µM [rising, single point].

Question: What about the AC50 [2] of the same compound?
Answer: The AC50 was 14.1 µM [rising, single point].

Question: Which AC50 [2] does the source give for NS(=O)(=O)c1ccc(NC(=O)COC(=O)CCc2ccc(S(=O)(=O)N3CCOCC3)cc2)cc1 here?
Answer: The AC50 was 0.0316 µM [falling, full curve].

Question: For COc1ccc(C(C)N2CC34C=CC(O3)C(C(=O)OCC(C)C)C4C2=O)cc1 (centres undefined), which AC50 [2] is on record?
Answer: The AC50 was 0.0891 µM [falling, full curve, poor fit].

Question: With Nc1nn(-c2ccccc2)c(N)c1N=Nc1ccccc1F as the compound, how does the AC50 [1] read?
Answer: The AC50 was 12.6 µM [rising, single point].

Question: What about the AC50 [2] of the same compound?
Answer: The AC50 was 31.6 µM [rising, single point].

Question: Which AC50 [2] does the source give for CCCCn1nnc(N(C(=O)c2cccs2)C(=O)c2cccs2)n1 here?
Answer: The AC50 was 25.1 µM [falling, single point].

Question: For c1csc(CNc2ncnc3ccc(-c4ccc5c(c4)OCO5)cc23)c1, which AC50 [2] is on record?
Answer: The AC50 was 14.1 µM [falling, single point].

Question: Which results are given for CCCc1nc2ccccc2c(C(=O)OCC(=O)N2CCc3ccccc32)c1CC?
Answer: AC50 [1]: 35.5 µM [rising, single point]; AC50 [2]: 22.4 µM [rising, single point]

Question: For CCOc1ccc(-n2c(C)cc(C(=O)CCl)c2C)cc1, which AC50 [2] is on record?
Answer: Its AC50 is 22.4 µM [falling, single point].

Question: Which results are given for Cc1nnc(N/N=C/c2cccc(OCc3ccc(Cl)c(Cl)c3)c2)n1N?
Answer: AC50 [1]: 15.8 µM [rising, single point]; AC50 [2]: 25.1 µM [rising, single point]

Question: Which AC50 [2] does the source give for Cc1cc(C(=O)N/N=C/c2cc(Br)ccc2OC(=O)c2ccccc2)n[nH]1 here?
Answer: The AC50 was 3.98 µM [rising, full curve].

Question: For Nn1c(Cc2cccc3ccccc23)nnc1SCc1c(Cl)cccc1Cl, which AC50 [2] is on record?
Answer: The AC50 was 11.2 µM [rising, partial curve].

Question: With N#Cc1cc(Oc2cccc3cccnc23)c(-n2nnc3ccccc32)cc1C#N as the compound, how does the AC50 [2] read?
Answer: The AC50 was 17.8 µM [falling, partial curve].

Question: With CCn1c2ccccc2c2cc(C3C(C#N)=C(N)Oc4n[nH]c(COC)c43)ccc21 (centres undefined) as the compound, how does the AC50 [1] read?
Answer: The AC50 was 35.5 µM [falling, single point].

Question: For COCCNC(=S)N1CCc2cc(OC)c(OC)cc2C1COc1cc(C)cc(C)c1 (centres undefined), which AC50 [2] is on record?
Answer: Its AC50 is 12.6 µM [rising, partial curve].

Question: With Cc1sc2nc3ccc(NCc4ccco4)nn3c(=O)c2c1C as the compound, how does the AC50 [1] read?
Answer: The AC50 was 17.8 µM [rising, single point].

Question: For CCCOc1ccc(N2C(=O)CC(N(CCc3ccc(OC)c(OC)c3)C(=S)Nc3ccccc3)C2=O)cc1 (centres undefined), which AC50 [2] is on record?
Answer: The AC50 was 3.55 µM [rising, full curve].

Question: With CN1CC(c2ccccc2)C2(SC(=S)N(Cc3ccco3)C2=O)C12C(=O)Nc1ccccc12 (centres undefined) as the compound, how does the AC50 [2] read?
Answer: Its AC50 is 15.8 µM [rising, single point].

Question: Which AC50 [2] does the source give for COC(=O)c1ccc(CN2C(=O)C3CCCCC3C2=O)o1 (centres undefined) here?
Answer: Its AC50 is 10 µM [falling, partial curve].

Question: Which AC50 [1] does the source give for Cc1ccc(C(=O)CSc2nnc(-c3ccccc3N)n2C)cc1 here?
Answer: Its AC50 is 0.891 µM [rising, partial curve, poor fit].

Question: What about the AC50 [2] of the same compound?
Answer: Its AC50 is 7.94 µM [rising, partial curve, poor fit].

Question: Which AC50 [2] does the source give for CC1Cc2ccccc2N1C(=O)CSc1nc2ccccc2s1 (centres undefined) here?
Answer: The AC50 was 25.1 µM [rising, single point].

Question: For Cc1ccc2c(c1)[nH]c1c(N3CCN(Cc4ccccc4)CC3)ncnc12, which AC50 [1] is on record?
Answer: The AC50 was 7.08 µM [rising, full curve, poor fit].

Question: For CCn1c(=O)n(CC)c2cc(S(=O)(=O)N3CCCCC3)c(C)cc21, which AC50 [2] is on record?
Answer: The AC50 was 12.6 µM [rising, single point].

Question: For COC(=O)CNC(=O)Nc1cc(C(=O)NCc2ccc(C)cc2)ccc1N1CCCC1, which AC50 [1] is on record?
Answer: The AC50 was 0.0112 µM [falling, full curve, poor fit].

Question: What about the AC50 [2] of the same compound?
Answer: The AC50 was 0.01 µM [falling, full curve, poor fit].

Question: For CN(C)c1ccc(/C=C/c2ccc3c4ccccc4ccc3[n+]2-c2ccccc2)cc1, which AC50 [2] is on record?
Answer: The AC50 was 5.01 µM [rising, single point].

Question: Which AC50 [2] does the source give for c1coc(CNc2nc(N3CCCCC3)nc3ccccc23)c1 here?
Answer: Its AC50 is 22.4 µM [rising, single point].

Question: For Cc1ccc(-n2c(O)c(/C=N/n3cnnc3)c3ccccc3c2=O)cc1, which AC50 [1] is on record?
Answer: Its AC50 is 35.5 µM [falling, single point].

Question: What about the AC50 [2] of the same compound?
Answer: Its AC50 is 35.5 µM [falling, single point].

Question: Which AC50 [2] does the source give for O=C(Nc1ccc(F)cc1F)c1ccc(CN2CC(=O)N3CCCCC3C2=O)cc1 (centres undefined) here?
Answer: Its AC50 is 0.0141 µM [falling, full curve, poor fit].

Question: With COc1ccc(OC)c(/C=C/C(=O)OCC(=O)Nc2ccc3c(c2)OCCO3)c1 as the compound, how does the AC50 [2] read?
Answer: Its AC50 is 22.4 µM [rising, partial curve, poor fit].

Question: For CN(c1cccc(NC(=O)CN(c2ccc(C34CC5CC(CC(C5)C3)C4)cc2)S(C)(=O)=O)c1)S(C)(=O)=O, which AC50 [1] is on record?
Answer: The AC50 was 17.8 µM [falling, single point].

Question: What about the AC50 [2] of the same compound?
Answer: The AC50 was 31.6 µM [falling, single point].

Question: Which AC50 [1] does the source give for CC(C)(C)c1cc(C(C)(C)C)c2oc(=O)c(-c3nc4ccccc4[nH]3)cc2c1 here?
Answer: Its AC50 is 3.16 µM [falling, single point].

Question: And the AC50 [2]?
Answer: The AC50 was 2.82 µM [falling, partial curve].

Question: Which AC50 [1] does the source give for O=C(CSc1nc2ccccc2c2nc(-c3ccccc3)nn12)Nc1ccc(Br)cc1 here?
Answer: Its AC50 is 0.00447 µM [falling, full curve, poor fit].

Question: And the AC50 [2]?
Answer: Its AC50 is 0.00708 µM [falling, full curve, poor fit].

Question: Which AC50 [1] does the source give for COc1cc(C(=O)NNC(=S)NC(=O)c2ccccc2C)cc(OC)c1OC here?
Answer: The AC50 was 10 µM [rising, partial curve, poor fit].

Question: What about the AC50 [2] of the same compound?
Answer: The AC50 was 14.1 µM [rising, single point].

Question: Which results are given for C/C(NC(=O)c1ccccc1)=C1/C(=O)CC2C1C2(C)C (centres undefined)?
Answer: AC50 [1]: 11.2 µM [rising, partial curve]; AC50 [2]: 5.62 µM [rising, full curve]

Question: With COc1ccccc1-c1nnc(SCC(=O)Nc2c(Cl)cccc2Cl)o1 as the compound, how does the AC50 [2] read?
Answer: Its AC50 is 35.5 µM [rising, single point].

Question: With Cc1cc(C(=O)CSc2nc(N)cc(N)n2)c(C)n1CCc1ccc(F)cc1 as the compound, how does the AC50 [2] read?
Answer: Its AC50 is 15.8 µM [rising, partial curve].

Question: With Cc1c(CCO)c(=O)[nH]n1C(=O)c1c(F)cccc1F as the compound, how does the AC50 [2] read?
Answer: Its AC50 is 20 µM [rising, single point].

Question: For CC1Cc2nc(SCC(=O)N3CCN(c4ccccc4)CC3)n(C)c(=O)c2S1 (centres undefined), which AC50 [1] is on record?
Answer: Its AC50 is 5.62 µM [rising, single point].

Question: What about the AC50 [2] of the same compound?
Answer: The AC50 was 3.16 µM [rising, single point].

Question: Which AC50 [1] does the source give for COc1cc2c3c(c1)C1(C(=O)N3C(C)(C)C=C2C)C(C#N)=C(N)Oc2cc(C)oc(=O)c21 (centres undefined) here?
Answer: The AC50 was 10 µM [falling, partial curve].

Question: And the AC50 [2]?
Answer: Its AC50 is 0.0224 µM [falling, full curve, poor fit].

Question: With COn1c(SC2CCCCC2)nc2ccccc2c1=O as the compound, how does the AC50 [2] read?
Answer: Its AC50 is 22.4 µM [rising, single point].

Question: Which AC50 [1] does the source give for Cc1nn(-c2ccccc2)c(Cl)c1C(=O)Nc1nnc(C2CCCCC2)s1 here?
Answer: The AC50 was 0.708 µM [falling, full curve, poor fit].

Question: Which AC50 [2] does the source give for COC(=O)c1c(NC(=O)COC(=O)CNC(=O)c2ccco2)sc(C)c1C here?
Answer: The AC50 was 0.158 µM [falling, full curve, poor fit].

Question: Which AC50 [2] does the source give for CCOC(=O)C1=C(N)OC2=C(C(=O)CCC2)C1c1ccco1 (centres undefined) here?
Answer: Its AC50 is 2.82 µM [rising, partial curve].

Question: Which results are given for COc1ccc(CN2CCCC(C(=O)c3cccc(OC(C)C)c3)C2)cc1Cn1cccn1 (centres undefined)?
Answer: AC50 [1]: 15.8 µM [falling, single point]; AC50 [2]: 35.5 µM [falling, single point]

Question: Which AC50 [1] does the source give for COc1ccc(-c2[nH]ncc2CN2CCC(N3CCSCC3)CC2)c(F)c1 here?
Answer: Its AC50 is 35.5 µM [falling, partial curve, poor fit].

Question: With CCCCC(=O)Nc1ccc2c3c(cccc13)C(=O)N2CC as the compound, how does the AC50 [1] read?
Answer: Its AC50 is 17.8 µM [falling, single point].

Question: For CC(C)c1ccc(S(=O)(=O)Nc2ccc(SC(F)F)cc2)cc1, which AC50 [1] is on record?
Answer: Its AC50 is 15.8 µM [rising, single point].

Question: What about the AC50 [2] of the same compound?
Answer: Its AC50 is 31.6 µM [rising, single point].
